The values that follow are results of earlier work, collected in patent US12458645B2, “Pediatric powder for oral suspension containing antiviral agent and method for the preparation thereof” (PHARMATHEN S.A., priority 2014, dated 2025).

For the series the following is noted: in words.

Regarding `Nc1nc2c(ncn2COCCO)c(=O)[nH]1` [acyclovir, Acyclovir], the solubility in water result is “poorly water soluble”.
